PubChem BioAssay AID1159578 – Peter MacCallum Cancer Centre, 2015
This is an unselected part of about 18,000 reagents tested. Over the whole deposit, about 1,030 (5.7%) got an active call. 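Inactive calls also include pools with fewer than 3300 nuclei, whose migration was not assessed.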 Raw values vary from plate to plate and are shown uncorrected. A number with no mark means an inactive call. No sequences are given here.

Assay: 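Knock-downs that alter how fast lymphatic endothelial cells migrate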 (primary screen)
System: human lymphatic endothelial cells
Reagents: siRNA pool against human genes, 40 nM
Duration: 48 h after transfection
Read-out: 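High-content imaging of dye-stained cells in a scratch assay measures filled wound area and nuclei per well; duplicate means given as ratio to mock and robust z-score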
Scale: migration robust z-score: higher = faster migration into the scratch; migration relative to mock: higher = more scratch area covered than mock; nuclei per well: higher = more cells in the well
Active means: 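Pools averaging fewer than 3300 nuclei are never called; remaining pools count as changed when migration robust z lies outside -2 to 2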
Meaning of the calls: active = migration changed; inactive = no migration change, or too few cells

target gene | migration robust z-score | migration class with cell-count check | migration relative to mock | nuclei per well, duplicate mean
MUTYH (GeneID 4595) | -0.84 | migration z between -2 and 2; enough cells | 0.64 | 6838
PJVK (GeneID 494513) | 0.4 | migration z between -2 and 2; enough cells | 0.99 | 6005
LINGO2 (GeneID 158038) | 0.5 | migration z between -2 and 2; enough cells | 1.02 | 6232
PRSS22 (GeneID 64063) | -0.47 | migration z between -2 and 2; enough cells | 0.71 | 5098
SCAND3 (GeneID 114821) | 0.36 | migration z between -2 and 2; enough cells | 0.98 | 5266
SMC3 (GeneID 9126) | 0.44 | migration z between -2 and 2; enough cells | 1 | 6043
KCTD1 (GeneID 284252) | 0.55 | migration z between -2 and 2; enough cells | 1.03 | 5396
OVOL1 (GeneID 5017) | -0.22 | migration z between -2 and 2; enough cells | 0.83 | 4210
HECTD2 (GeneID 143279) | 1.19 | migration z between -2 and 2; enough cells | 1.03 | 4580
RNASE1 (GeneID 6035) | -0.55 | migration z between -2 and 2; enough cells | 0.7 | 5430
FERRY3 (GeneID 57102) | -0.01 | migration z between -2 and 2; enough cells | 0.88 | 6069
CATSPERG (GeneID 57828) | 0.09 | migration z between -2 and 2; enough cells | 0.9 | 4732
MGAT4B (GeneID 11282) | 0.91 | migration z between -2 and 2; enough cells | 0.98 | 4874
EBLN2 (GeneID 55096) | -0.24 | migration z between -2 and 2; enough cells | 0.82 | 5939
DPYSL3 (GeneID 1809) | 0.83 | migration z between -2 and 2; enough cells | 0.97 | 6355
F9 (GeneID 2158) | -0.52 | migration z between -2 and 2; enough cells | 0.7 | 5174
IL33 (GeneID 90865) | 0.16 | migration z between -2 and 2; enough cells | 0.92 | 5720
IFT46 (GeneID 56912) | 0.43 | migration z between -2 and 2; enough cells | 1 | 6658
RSL1D1 (GeneID 26156) | 1 | migration z between -2 and 2; enough cells | 1.15 | 6014
C1orf122 (GeneID 127687) | 1.94 | migration z between -2 and 2; enough cells | 1.39 | 5666
F8A1 (GeneID 8263) | 0.74 | migration z between -2 and 2; enough cells | 1.08 | 5002
PRM2 (GeneID 5620) | -1.84 | migration z between -2 and 2; enough cells | 0.41 | 3900
LHX5 (GeneID 64211) | 1.46 | migration z between -2 and 2; enough cells | 1.08 | 6668
WDR75 (GeneID 84128) | -0.44 | migration z between -2 and 2; enough cells | 0.77 | 5588
PCDH10 (GeneID 57575) | -0.59 | migration z between -2 and 2; enough cells | 0.74 | 5928
OGT (GeneID 8473) | -0.02 | migration z between -2 and 2; enough cells | 0.8 | 6444
DMRTC1 (GeneID 63947) | -4.96 | under 3300 nuclei; migration not judged | -0.4 | 2078
SKIDA1 (GeneID 387640) | 1.11 | migration z between -2 and 2; enough cells | 1.18 | 5520
ZNF595 (GeneID 152687) | -1.23 | migration z between -2 and 2; enough cells | 0.56 | 5664
TIPIN (GeneID 54962) | -0.18 | migration z between -2 and 2; enough cells | 0.84 | 6269
KHK (GeneID 3795) | -0.88 | migration z between -2 and 2; enough cells | 0.64 | 4596
FCGBP (GeneID 8857) | 0.64 | migration z between -2 and 2; enough cells | 1.05 | 6297
RAB43 (GeneID 339122) | -0.15 | migration z between -2 and 2; enough cells | 0.85 | 5684
NDUFA2 (GeneID 4695) | -1.94 | migration z between -2 and 2; enough cells | 0.43 | 3454
XPNPEP2 (GeneID 7512) | 0.28 | migration z between -2 and 2; enough cells | 0.86 | 3882
CHCHD3 (GeneID 54927) | 3.05 (active) | migration z above 2; enough cells | 1.67 | 6480
RNF141 (GeneID 50862) | -0.6 | migration z between -2 and 2; enough cells | 0.69 | 5549
NCOR1 (GeneID 9611) | 0.36 | migration z between -2 and 2; enough cells | 0.88 | 4644
ABCB8 (GeneID 11194) | -0.42 | migration z between -2 and 2; enough cells | 0.78 | 6050
BNIP3 (GeneID 664) | 0.7 | migration z between -2 and 2; enough cells | 0.94 | 6150
METTL2A (GeneID 339175) | 0.97 | migration z between -2 and 2; enough cells | 1.14 | 4920
PAGE5 (GeneID 90737) | 0.11 | migration z between -2 and 2; enough cells | 0.92 | 4802
PARL (GeneID 55486) | 0.54 | migration z between -2 and 2; enough cells | 1.02 | 7113
TAB3 (GeneID 257397) | -0.08 | migration z between -2 and 2; enough cells | 0.86 | 6921
TNFRSF9 (GeneID 3604) | 0.96 | migration z between -2 and 2; enough cells | 0.99 | 4200
MZT2B (GeneID 80097) | -0.12 | migration z between -2 and 2; enough cells | 0.86 | 6131
CXCL11 (GeneID 6373) | 1.38 | migration z between -2 and 2; enough cells | 1.25 | 6284
LSM1 (GeneID 27257) | 0.29 | migration z between -2 and 2; enough cells | 0.96 | 6736
GPAT3 (GeneID 84803) | 0.21 | migration z between -2 and 2; enough cells | 0.84 | 5620
OMP (GeneID 4975) | 2.79 (active) | migration z above 2; enough cells | 1.61 | 4149
IRX3 (GeneID 79191) | 1.93 | migration z between -2 and 2; enough cells | 1.38 | 6118
PPP1R15B (GeneID 84919) | 0.6 | migration z between -2 and 2; enough cells | 0.92 | 4456
MAP3K21 (GeneID 84451) | 1.4 | migration z between -2 and 2; enough cells | 1.07 | 5757
TOR1AIP1 (GeneID 26092) | -1.05 | migration z between -2 and 2; enough cells | 0.61 | 4348
DSTN (GeneID 11034) | 1.6 | migration z between -2 and 2; enough cells | 1.3 | 6214
GPR157 (GeneID 80045) | -0.49 | migration z between -2 and 2; enough cells | 0.71 | 6081
RAN (GeneID 5901) | 0.21 | migration z between -2 and 2; enough cells | 0.84 | 4958

Records above marked active (2):
target gene | migration robust z-score | migration class with cell-count check | migration relative to mock | nuclei per well, duplicate mean
CHCHD3 (GeneID 54927) | 3.05 (active) | migration z above 2; enough cells | 1.67 | 6480
OMP (GeneID 4975) | 2.79 (active) | migration z above 2; enough cells | 1.61 | 4149
